Test: RRT study: LC-MS/MS urinary proteomics, AKI after cardiac surgery, RRT vs No RRT
Parameters: species or system human
Details: for Mean No RRT / Mean RRT: urine; for Mean No RRT: AKI patients who did not require RRT (n=6); for Mean RRT: AKI patients who required RRT (n=6)
[1] = direction of urinary abundance, patients who did vs did not require RRT/dialysis
[2] = direction of differential abundance, patients who did vs did not require RRT/dialysis
[3] = patients who did vs did not require RRT/dialysis
[4] = RRT vs No RRT, positive = elevated in RRT group
[5] = patients who did vs did not require RRT/dialysis, read with the Up or Down column

Sequences of proteins named here, by UniProt entry; tags and fusion partners are left off. A change or cut given only in a name is not applied to a line headed by its entry.
UniProt Q02747: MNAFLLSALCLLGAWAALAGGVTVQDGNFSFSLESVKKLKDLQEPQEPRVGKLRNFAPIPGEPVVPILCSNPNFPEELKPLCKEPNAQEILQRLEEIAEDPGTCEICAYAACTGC

Substance	Up or Down [1]	Up or Down [2]	Mean Fold Change [5]	also measured
Deleted in malignant brain tumors 1 protein	Up	–	–	–
Desmocollin-2	–	Down	–	Mean Fold Change [3]: 1.357
Dipeptidyl peptidase 1	–	Down	–	Mean Fold Change [3]: 1.102
Epididymai secretory protein E1: urinary protein, Uniprot P61916	–	–	–	Mean Fold Change [4]: 3.279; Mean No RRT: 3.17 normalized spectral counts; Mean RRT: 10.39 normalized spectral counts
Epididymal secretory protein E1	Up	–	4.918	–
Extracellular sulfatase Sulf-2	–	Down	–	Mean Fold Change [3]: 3.083
Fatty acid-binding protein, epidermal	Up	–	–	–
Fatty acid-binding protein, heart	Up	–	4.242	–
Fatty acid-binding protein, liver	Up	–	41.63	–
Fibrinogen beta chain: urinary protein, Uniprot P02675	Up	–	3.921	Mean Fold Change [4]: 3.921; Mean No RRT: 3.65 normalized spectral counts; Mean RRT: 14.29 normalized spectral counts
Fibrinogen gamma chain	Up	–	3.638	–
Fibronectin	Up	–	3.1	–
G-protein coupled receptor family C group 5 member C	–	Down	–	Mean Fold Change [3]: 1.059
Gamma-interferon-inducible lysosomal thiol reductase	–	Down	–	Mean Fold Change [3]: 1.44
Gelsolin	Up	–	1.172	–
Glyceraldehyde-3-phosphate dehydrogenase	Up	–	3.688	–
Guanylin (PGTCEICAYAACTGC; Guanylin; UniProt Q02747 101-115, looked up)	Up	–	1.503	–
Haptoglobin	Up	–	1.16	–
Hemicentin-1	–	Down	–	Mean Fold Change [3]: 1.331
Hemoglobin subunit alpha	Up	–	3.508	–
Hemoglobin subunit beta	Up	–	2.992	–

Substance	Up or Down [1]	Up or Down [2]	Mean Fold Change [5]	also measured
Hemoglobin subunit delta	Up	–	3.555	–
Hemoglobin subunit gamma-1	Up	–	6.761	–
Hemopexin: urinary protein, Uniprot P02790	Up	–	3.79	Mean Fold Change [4]: 3.79; Mean No RRT: 7.94 normalized spectral counts; Mean RRT: 30.11 normalized spectral counts
Hepatitis A virus cellular receptor 2	–	Down	–	Mean Fold Change [3]: 2.48
Ig gamma-1 chain C region	Up	–	2.454	–
Ig heavy chain V-III region BUT	Up	–	–	–
Ig heavy chain V-III region GAL	Up	–	11.56	–
Ig kappa chain C region	Up	–	1.325	–
Ig kappa chain V-I region AG	Up	–	1.223	–
Ig kappa chain V-I region AU	Up	–	1.908	–
Ig kappa chain V-I region EU	Up	–	1.779	–
Ig kappa chain V-I region Scw	Up	–	2.197	–
Ig kappa chain V-I region Wes	Up	–	2.048	–
Ig kappa chain V-II region TEW	–	Down	–	Mean Fold Change [3]: 1.196
Ig kappa chain V-III region CLL	–	Down	–	Mean Fold Change [3]: 1.423
Ig kappa chain V-III region HAH	–	Down	–	Mean Fold Change [3]: 1.126
Ig kappa chain V-III region NG9 (Fragment)	–	Down	–	Mean Fold Change [3]: 1.521
Ig kappa chain V-III region VG (Fragment)	Up	–	1.187	–
Ig kappa chain V-IV region Len	–	Down	–	Mean Fold Change [3]: 1.345
Ig lambda chain V-I region HA	Up	–	1.023	–
Ig lambda-2 chain C regions	Up	–	1.517	–

Substance	Up or Down [1]	Up or Down [2]	Mean Fold Change [5]	also measured
Immunoglobulin J chain	Up	–	1.102	–
Immunoglobulin lambda-like polypeptide 5	Up	–	1.364	–
Immunoglobulin superfamily member 8	–	Down	–	Mean Fold Change [3]: 7.826
Insulin-like growth factor-binding protein 3	Up	–	2.077	–
Insulin-like growth factor-binding protein 7	Up	–	1.134	–
Interleukin-1 receptor antagonist protein	–	Down	–	Mean Fold Change [3]: 1.017
Kallikrein-1	–	Down	–	Mean Fold Change [3]: 2.957
Latent-transforming growth factor beta-binding protein 1	Up	–	1.056	–
Latent-transforming growth factor beta-binding protein 2	Up	–	2.421	–
Lipocalin-1	–	Down	–	Mean Fold Change [3]: 1.421
Liver-expressed antimicrobial peptide 2 (MTPFWRGVSLRPIGASCRDDSECITRLCRKRRCSLSVAQE; UniProt Q969E1 38-77, looked up)	Up	–	1.113	–
Low affinity immunoglobulin gamma Fc region receptor III-A	–	Down	–	Mean Fold Change [3]: 6.36
Low-density lipoprotein receptor-related protein 2	Up	–	1.6173	–
Lumican	Up	–	2.49	–
Lysosomal acid phosphatase	–	Down	–	–
Lysosomal alpha-glucosidase	Up	–	1.002	–
Lysozyme C	Up	–	16.82	–
Maltase-glucoamylase, intestinal	–	Down	–	Mean Fold Change [3]: 1.917
Mesothelin	Up	–	–	–
Metalloproteinase inhibitor 1	Up	–	–	–

Source: patent publication US20140038203A1, “METHODS FOR DETECTING OR PREDICTING KIDNEY DISEASE” (MUSC FOUNDATION FOR RESEARCH DEVELOPMENT, priority 2012, published 2014)
